In this experiment the target is GFP-tagged RPL11 (Drosophila) (UniProt P46222). Kind of experiment: co-IP; IP of GFP-tagged RPL11 (Act5C-Gal4>UAS-Rpl11.GFP) from OTUD6.FLAG.HA or OTUD6^C183A.FLAG.HA flies in the presence of cycloheximide, western for HA, RPS7 and GFP.

Results are given in words; binding and its absence hold for the method and conditions named. Binding seen in cells or lysates may run through a third protein. Some binding calls cover weakened binding; strength is not graded here.

Data on 1 molecule can be found in PMC11316749.

B1: RPS7 (ubiquitination state not told) (protein, UniProt Q9VA91 1-194)
chain: MAIGSKIIKPGGSDPDDFEKSIAQALVELEANSDLKPYLRDLHITRAREIEFGSKKAVIIYVPIPQQKVFQKIQIILVRELEKKFSGKHVVVIAERKILPKPTRKARNPLKQKRPRSRTLTAVYDAILEDLVFPAEIVGKRIRVKLDGSQLVKVHLDKNQQTTIEHKVDTFTSVYKKLTGRDVTFEFPDNYLNV
B1: the binding entry is on record as “binds”.
